Test results as given in paper PMC7774954, “Interactomic affinity profiling by holdup assay: Acetylation and distal residues impact the PDZome-binding specificity of PTEN phosphatase” (PLoS ONE, 2020).
These are yes or no findings as the source states them, for the method shown.

The chains behind the UniProt entries cited, without tags or fusion partners. Where a name states a change or a piece, a line headed by the entry shows the natural chain unless it says otherwise.
UniProt P60484: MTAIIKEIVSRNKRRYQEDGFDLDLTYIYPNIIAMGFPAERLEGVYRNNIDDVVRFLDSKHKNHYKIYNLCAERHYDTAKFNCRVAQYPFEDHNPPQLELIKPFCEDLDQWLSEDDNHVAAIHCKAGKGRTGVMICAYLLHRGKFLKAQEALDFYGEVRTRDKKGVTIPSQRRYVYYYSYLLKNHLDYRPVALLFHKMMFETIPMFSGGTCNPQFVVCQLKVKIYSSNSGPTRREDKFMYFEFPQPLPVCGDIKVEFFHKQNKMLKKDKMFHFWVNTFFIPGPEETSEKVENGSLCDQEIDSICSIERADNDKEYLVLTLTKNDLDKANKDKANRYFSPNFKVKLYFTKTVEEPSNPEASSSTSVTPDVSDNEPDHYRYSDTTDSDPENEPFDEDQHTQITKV

Tests used:
Assay in all cases: holdup assay; biotinylated PBM peptide on streptavidin resin, biotin resin as reference; tag-PDZ at 4 uM in crude E. coli lysate, 15 min, filtrate read by capillary electrophoresis; singlicate; BI converted into KD with the mean peptide concentration back-calculated from FP (34, 28, 25, 17 uM); LogKD is -log10 of KD in M, overall uncertainty ± 0.12; cells at the column's lower value are pairs without detected binding; only the target purified
PTEN_11 (human) = PTEN_11 (human) (UniProt P60484)
PTEN_13 (human) = PTEN_13 (human) (UniProt P60484)
PTEN_Ac (human) = PTEN_Ac (human) (UniProt P60484)
PTEN_KR (human) = PTEN_KR (human) (UniProt P60484)

Measured: binding

B1: APBA2-2 (domain or fragment, UniProt Q99767 659-734)
chain: TVLIKRPDLKYQLGFSVQNGIICSLMRGGIAERGGVRVGHRIIEINGQSVVATAHEKIVQALSNSVGEIHMKTMPA
no binding (tested: lower value): PTEN_11 (human) | PTEN_13 (human) | PTEN_Ac (human) | PTEN_KR (human)

B2: FRMPD2-1 (domain or fragment, UniProt Q68DX3 775-861)
chain: RVTLKRDPHRGFGFVINEGEYSGQADPGIFISSIIPGGPAEKAKTIKPGGQILALNHISLEGFTFNMAVRMIQNSPDNIELIISQSK
no binding (tested: lower value): PTEN_11 (human) | PTEN_13 (human) | PTEN_Ac (human) | PTEN_KR (human)

B3: FRMPD2-3 (domain or fragment, UniProt Q68DX3 1079-1167)
chain: EVKLKKNANGLGFSFVQMEKESCSHLKSDLVRIKRLFPGQPAEENGAIAAGDIILAVNGRSTEGLIFQEVLHLLRGAPQEVTLLLCRPP
no binding (tested: lower value): PTEN_11 (human) | PTEN_13 (human) | PTEN_Ac (human) | PTEN_KR (human)

B4: APBA3-1 (domain or fragment, UniProt O96018 394-480)
chain: EVHLEKRRGEGLGVALVESGWGSLLPTAVIANLLHGGPAERSGALSIGDRLTAINGTSLVGLPLAACQAAVRETKSQTSVTLSIVHC
no binding (tested: lower value): PTEN_11 (human) | PTEN_13 (human) | PTEN_Ac (human) | PTEN_KR (human)

B5: GRIP1-2 (domain or fragment, UniProt Q9Y3R0 150-238)
chain: TVEVTLHKEGNTFGFVIRGGAHDDRNKSRPVVITCVRPGGPADREGTIKPGDRLLSVDGIRLLGTTHAEAMSILKQCGQEAALLIEYDV
no binding (tested: lower value): PTEN_11 (human) | PTEN_13 (human) | PTEN_Ac (human) | PTEN_KR (human)

B6: GRIP1-3 (domain or fragment, UniProt Q9Y3R0 252-336)
chain: LVEVAKTPGASLGVALTTSMCCNKQVIVIDKIKSASIADRCGALHVGDHILSIDGTSMEYCTLAEATQFLANTTDQVKLEILPHH
no binding (tested: lower value): PTEN_11 (human) | PTEN_13 (human) | PTEN_Ac (human) | PTEN_KR (human)

B7: GRIP1-4 (domain or fragment, UniProt Q9Y3R0 472-561)
chain: EVVLTADPVTGFGIQLQGSVFATETLSSPPLISYIEADSPAERCGVLQIGDRVMAINGIPTEDSTFEEASQLLRDSSITSKVTLEIEFDV
no binding (tested: lower value): PTEN_11 (human) | PTEN_13 (human) | PTEN_Ac (human) | PTEN_KR (human)

B8: GRIP1-5 (domain or fragment, UniProt Q9Y3R0 573-658)
chain: HVKLPKKHNVELGITISSPSSRKPGDPLVISDIKKGSVAHRTGTLELGDKLLAIDNIRLDNCSMEDAVQILQQCEDLVKLKIRKDE
no binding (tested: lower value): PTEN_11 (human) | PTEN_13 (human) | PTEN_Ac (human) | PTEN_KR (human)

B9: GRIP1-7 (domain or fragment, UniProt Q9Y3R0 1004-1086)
chain: KVTLYKDSDMEDFGFSVADGLLEKGVYVKNIRPAGPGDLGGLKPYDRLLQVNHVRTRDFDCCLVVPLIAESGNKLDLVISRNP
no binding (tested: lower value): PTEN_11 (human) | PTEN_13 (human) | PTEN_Ac (human) | PTEN_KR (human)

B10: APBA3-2 (domain or fragment, UniProt O96018 485-560)
chain: TAIIHRPHAREQLGFCVEDGIICSLLRGGIAERGGIRVGHRIIEINGQSVVATPHARIIELLTEAYGEVHIKTMPA
no binding (tested: lower value): PTEN_11 (human) | PTEN_13 (human) | PTEN_Ac (human) | PTEN_KR (human)

B11: INADL-1 (domain or fragment, UniProt Q8NI35 134-221)
chain: YIDIERPSTGGLGFSVVALRSQNLGKVDIFVKDVQPGSVADRDQRLKENDQILAINHTPLDQNISHQQAIALLQQTTGSLRLIVAREP
no binding (tested: lower value): PTEN_11 (human) | PTEN_13 (human) | PTEN_Ac (human) | PTEN_KR (human)

B12: INADL-3 (domain or fragment, UniProt Q8NI35 365-453)
chain: NVELVRKDGQSLGIRIVGYVGTSHTGEASGIYVKSIIPGSAAYHNGHIQVNDKIVAVDGVNIQGFANHDVVEVLRNAGQVVHLTLVRRK
no binding (tested: lower value): PTEN_11 (human) | PTEN_13 (human) | PTEN_Ac (human) | PTEN_KR (human)

B13: INADL-4 (domain or fragment, UniProt Q8NI35 553-639)
chain: DAELQKYSKLLPIHTLRLGVEVDSFDGHHYISSIVSGGPVDTLGLLQPEDELLEVNGMQLYGKSRREAVSFLKEVPPPFTLVCCRRL
no binding (tested: lower value): PTEN_11 (human) | PTEN_13 (human) | PTEN_Ac (human) | PTEN_KR (human)

B14: INADL-5 (domain or fragment, UniProt Q8NI35 686-772)
chain: IVELVKDCKGLGFSILDYQDPLDPTRSVIVIRSLVADGVAERSGGLLPGDRLVSVNEYCLDNTSLAEAVEILKAVPPGLVHLGICKP
no binding (tested: lower value): PTEN_11 (human) | PTEN_13 (human) | PTEN_Ac (human) | PTEN_KR (human)

B15: NHERF3-2 (domain or fragment, UniProt Q5T2W1 134-215)
chain: RLCYLVKEGGSYGFSLKTVQGKKGVYMTDITPQGVAMRAGVLADDHLIEVNGENVEDASHEEVVEKVKKSGSRVMFLLVDKE
no binding (tested: lower value): PTEN_11 (human) | PTEN_13 (human) | PTEN_KR (human)

B16: NHERF4-2 (domain or fragment, UniProt Q86UT5 223-301)
chain: LCHIVKDEGGFGFSVTHGNQGPFWLVLSTGGAAERAGVPPGARLLEVNGVSVEKFTHNQLTRKLWQSGQQVTLLVAGPE
no binding (tested: lower value): PTEN_11 (human) | PTEN_Ac (human) | PTEN_KR (human)

B17: NHERF4-3 (domain or fragment, UniProt Q86UT5 329-412)
chain: CLHLEKGPQGFGFLLREEKGLDGRPGQFLWEVDPGLPAKKAGMQAGDRLVAVAGESVEGLGHEETVSRIQGQGSCVSLTVVDPE
no binding (tested: lower value): PTEN_11 (human) | PTEN_Ac (human) | PTEN_KR (human)

B18: PDZD2-4 (domain or fragment, UniProt O15018 728-813)
chain: EVTLNKEPRVGLGIGACCLALENSPPGIYIHSLAPGSVAKMESNLSRGDQILEVNSVNVRHAALSKVHAILSKCPPGPVRLVIGRH
no binding (tested: lower value): PTEN_11 (human) | PTEN_Ac (human) | PTEN_KR (human)

B19: PDZD2-5 (domain or fragment, UniProt O15018 2622-2706)
chain: FIVLNRKEGSGLGFSVAGGTDVEPKSITVHRVFSQGAASQEGTMNRGDFLLSVNGASLAGLAHGNVLKVLHQAQLHKDALVVIKK
no binding (tested: lower value): PTEN_11 (human) | PTEN_Ac (human) | PTEN_KR (human)

B20: PDZD7-2 (domain or fragment, UniProt Q9H5P4 210-293)
chain: IVHLYTTSDDFCLGFNIRGGKEFGLGIYVSKVDHGGLAEENGIKVGDQVLAANGVRFDDISHSQAVEVLKGQTHIMLTIKETGR
no binding (tested: lower value): PTEN_11 (human) | PTEN_13 (human) | PTEN_KR (human)

B21: DFNB31-3 (domain or fragment, UniProt Q9P202 816-899)
chain: LVRVKKSAATLGIAIEGGANTRQPLPRIVTIQRGGSAHNCGQLKVGHVILEVNGLTLRGKEHREAARIIAEAFKTKDRDYIDFL
no binding (tested: lower value): PTEN_11 (human) | PTEN_13 (human) | PTEN_KR (human)
